Holding throughout (assay): log2 fold change, soluble protein after heating vs DMSO (PISA); higher = thermal stabilisation; K562 cells, 10 uM, 30 min; active = over 0.2 and 3.5 SD of the protein, either way, in both replicates (recomputed)
Compound in test [1]: CC1=C(C=C(C=C1)NC(=O)C2=CC(=CC=C2)N(C)C)NC(=O)C3=CC=C(C=C3)O
Summed up: (§1)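 K562 cells (2×10^6 cells/mL) were treated with 10 μM compound for 30 min, and aliquots were heated for 3 min over 48°C-58°C. Pooled aliquots were extracted in PBS with 0.5% NP-40 at 4°C, and the supernatant after 21,000xg for 90 min was measured by TMTpro 16plex LC-MS/MS with channel sums equalised. Reported thermal stability, relative to control samples and from duplicates, is a log2 fold change.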

Chains of the proteins cited; added tags and fusions are not shown. Lines headed by an entry give the natural chain unless they say otherwise; changes in a name come on top.
UniProt Q8WU58: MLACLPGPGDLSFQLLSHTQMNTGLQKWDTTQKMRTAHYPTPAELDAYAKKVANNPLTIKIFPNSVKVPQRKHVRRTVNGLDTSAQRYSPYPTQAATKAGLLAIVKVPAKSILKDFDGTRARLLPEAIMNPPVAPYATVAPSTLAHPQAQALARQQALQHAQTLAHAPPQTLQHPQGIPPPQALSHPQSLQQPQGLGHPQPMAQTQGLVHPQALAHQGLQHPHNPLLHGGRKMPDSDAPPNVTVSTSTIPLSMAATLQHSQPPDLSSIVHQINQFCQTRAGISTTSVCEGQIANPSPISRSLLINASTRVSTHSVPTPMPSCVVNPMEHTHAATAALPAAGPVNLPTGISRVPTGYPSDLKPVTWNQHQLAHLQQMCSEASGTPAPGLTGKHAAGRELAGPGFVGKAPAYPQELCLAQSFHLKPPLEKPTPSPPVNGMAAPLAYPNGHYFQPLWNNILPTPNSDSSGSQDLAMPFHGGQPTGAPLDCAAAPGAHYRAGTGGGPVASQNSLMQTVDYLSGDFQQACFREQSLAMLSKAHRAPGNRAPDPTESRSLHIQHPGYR
UniProt Q9UK97: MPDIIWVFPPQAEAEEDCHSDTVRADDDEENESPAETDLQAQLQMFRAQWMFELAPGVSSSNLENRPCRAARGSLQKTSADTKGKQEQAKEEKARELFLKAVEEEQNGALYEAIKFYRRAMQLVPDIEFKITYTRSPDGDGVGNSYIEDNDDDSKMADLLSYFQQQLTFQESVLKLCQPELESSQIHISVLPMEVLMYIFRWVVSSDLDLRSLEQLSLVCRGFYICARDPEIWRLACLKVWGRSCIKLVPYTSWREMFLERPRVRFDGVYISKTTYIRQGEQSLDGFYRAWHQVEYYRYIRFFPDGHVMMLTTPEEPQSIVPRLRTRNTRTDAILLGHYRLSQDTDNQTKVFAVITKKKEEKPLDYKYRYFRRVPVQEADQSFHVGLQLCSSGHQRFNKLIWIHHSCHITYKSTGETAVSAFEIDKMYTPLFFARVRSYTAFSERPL
UniProt B1AJZ9: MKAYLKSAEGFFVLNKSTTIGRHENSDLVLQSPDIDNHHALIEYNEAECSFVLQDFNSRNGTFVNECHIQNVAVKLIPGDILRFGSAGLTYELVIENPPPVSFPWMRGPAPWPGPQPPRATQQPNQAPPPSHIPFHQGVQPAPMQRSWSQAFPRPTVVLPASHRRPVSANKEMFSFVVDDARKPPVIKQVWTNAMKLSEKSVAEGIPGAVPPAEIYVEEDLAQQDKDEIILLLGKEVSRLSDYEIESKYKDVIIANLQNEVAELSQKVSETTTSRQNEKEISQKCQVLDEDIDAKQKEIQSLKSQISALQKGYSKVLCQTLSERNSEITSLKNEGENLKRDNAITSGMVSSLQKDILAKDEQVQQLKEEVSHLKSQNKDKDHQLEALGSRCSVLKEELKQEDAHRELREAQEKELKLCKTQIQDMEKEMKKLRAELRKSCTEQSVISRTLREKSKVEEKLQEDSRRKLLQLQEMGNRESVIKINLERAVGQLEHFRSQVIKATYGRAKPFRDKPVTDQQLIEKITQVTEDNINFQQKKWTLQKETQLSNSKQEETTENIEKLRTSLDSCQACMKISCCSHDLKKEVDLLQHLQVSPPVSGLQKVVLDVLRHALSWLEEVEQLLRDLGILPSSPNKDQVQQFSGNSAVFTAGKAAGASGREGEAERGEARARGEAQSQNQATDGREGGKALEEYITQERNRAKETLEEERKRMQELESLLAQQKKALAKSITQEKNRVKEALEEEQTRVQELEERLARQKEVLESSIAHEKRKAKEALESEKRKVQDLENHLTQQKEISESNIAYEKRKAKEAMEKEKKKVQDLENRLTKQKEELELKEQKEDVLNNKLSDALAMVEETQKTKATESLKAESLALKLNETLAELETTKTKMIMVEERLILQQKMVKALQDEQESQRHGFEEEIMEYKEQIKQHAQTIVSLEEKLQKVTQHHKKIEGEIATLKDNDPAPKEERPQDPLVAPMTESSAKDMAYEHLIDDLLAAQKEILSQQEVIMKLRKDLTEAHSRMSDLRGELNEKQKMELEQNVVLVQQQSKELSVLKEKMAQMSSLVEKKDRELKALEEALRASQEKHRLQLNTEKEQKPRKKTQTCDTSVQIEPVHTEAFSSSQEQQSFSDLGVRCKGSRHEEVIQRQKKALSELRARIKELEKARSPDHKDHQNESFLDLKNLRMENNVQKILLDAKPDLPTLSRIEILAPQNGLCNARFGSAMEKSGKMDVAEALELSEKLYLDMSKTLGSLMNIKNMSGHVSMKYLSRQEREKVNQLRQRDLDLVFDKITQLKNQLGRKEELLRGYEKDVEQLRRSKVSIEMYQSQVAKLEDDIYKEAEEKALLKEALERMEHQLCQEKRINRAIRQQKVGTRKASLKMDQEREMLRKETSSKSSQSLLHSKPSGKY
UniProt P16591: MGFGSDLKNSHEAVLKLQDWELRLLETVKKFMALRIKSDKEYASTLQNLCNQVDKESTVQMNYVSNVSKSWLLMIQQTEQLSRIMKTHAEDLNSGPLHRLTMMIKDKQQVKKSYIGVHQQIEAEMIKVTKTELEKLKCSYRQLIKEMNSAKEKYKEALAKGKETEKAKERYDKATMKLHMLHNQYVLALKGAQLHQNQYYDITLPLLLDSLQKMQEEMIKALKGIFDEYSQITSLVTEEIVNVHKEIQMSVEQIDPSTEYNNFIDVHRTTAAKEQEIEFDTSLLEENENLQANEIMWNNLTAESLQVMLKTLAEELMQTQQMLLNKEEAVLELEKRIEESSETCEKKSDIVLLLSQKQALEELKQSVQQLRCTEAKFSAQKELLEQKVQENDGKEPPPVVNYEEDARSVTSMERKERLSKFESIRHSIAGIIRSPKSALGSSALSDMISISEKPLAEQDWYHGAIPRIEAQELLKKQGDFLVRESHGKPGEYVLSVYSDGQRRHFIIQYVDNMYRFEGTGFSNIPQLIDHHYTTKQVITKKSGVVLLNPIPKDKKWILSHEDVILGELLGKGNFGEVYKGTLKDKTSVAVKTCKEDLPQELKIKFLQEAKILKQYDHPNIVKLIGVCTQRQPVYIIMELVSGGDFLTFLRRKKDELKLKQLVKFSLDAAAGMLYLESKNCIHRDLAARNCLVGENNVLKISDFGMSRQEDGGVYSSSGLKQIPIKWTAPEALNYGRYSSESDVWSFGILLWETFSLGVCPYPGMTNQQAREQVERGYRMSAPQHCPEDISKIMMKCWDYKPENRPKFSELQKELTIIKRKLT
UniProt Q9NVK5: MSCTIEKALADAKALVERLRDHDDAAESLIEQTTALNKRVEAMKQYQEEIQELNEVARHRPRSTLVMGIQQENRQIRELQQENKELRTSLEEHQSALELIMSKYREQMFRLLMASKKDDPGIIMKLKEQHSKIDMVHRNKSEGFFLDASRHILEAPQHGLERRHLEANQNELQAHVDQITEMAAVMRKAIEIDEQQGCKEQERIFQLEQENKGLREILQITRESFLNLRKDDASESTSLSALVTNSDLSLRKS
UniProt Q8TAV0: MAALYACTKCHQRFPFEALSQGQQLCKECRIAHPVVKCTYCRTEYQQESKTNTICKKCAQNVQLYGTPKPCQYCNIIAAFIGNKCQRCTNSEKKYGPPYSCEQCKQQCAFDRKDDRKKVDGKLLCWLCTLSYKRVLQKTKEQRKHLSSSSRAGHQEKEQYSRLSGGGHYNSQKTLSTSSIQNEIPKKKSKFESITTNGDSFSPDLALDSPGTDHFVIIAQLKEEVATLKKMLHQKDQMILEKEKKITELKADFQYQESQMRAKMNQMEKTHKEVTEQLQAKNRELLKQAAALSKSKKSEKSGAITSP
UniProt Q14314: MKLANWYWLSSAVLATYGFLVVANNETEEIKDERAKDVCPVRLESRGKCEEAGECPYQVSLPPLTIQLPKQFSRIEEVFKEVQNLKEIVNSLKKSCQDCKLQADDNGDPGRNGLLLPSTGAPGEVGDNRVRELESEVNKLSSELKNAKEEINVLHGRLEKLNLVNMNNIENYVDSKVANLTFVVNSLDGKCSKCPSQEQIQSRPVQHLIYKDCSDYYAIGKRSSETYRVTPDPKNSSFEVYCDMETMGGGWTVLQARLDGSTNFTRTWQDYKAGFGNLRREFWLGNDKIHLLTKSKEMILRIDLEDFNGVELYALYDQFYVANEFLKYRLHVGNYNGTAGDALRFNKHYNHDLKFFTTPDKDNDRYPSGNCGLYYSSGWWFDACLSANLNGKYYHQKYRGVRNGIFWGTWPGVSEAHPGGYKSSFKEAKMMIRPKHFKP
UniProt Q8IW50: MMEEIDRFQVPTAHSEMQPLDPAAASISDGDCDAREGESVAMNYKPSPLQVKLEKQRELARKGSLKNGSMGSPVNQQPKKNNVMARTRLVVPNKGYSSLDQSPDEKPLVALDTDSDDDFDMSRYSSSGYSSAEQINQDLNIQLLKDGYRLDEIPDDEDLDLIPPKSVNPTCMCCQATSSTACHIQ
UniProt Q9NW38: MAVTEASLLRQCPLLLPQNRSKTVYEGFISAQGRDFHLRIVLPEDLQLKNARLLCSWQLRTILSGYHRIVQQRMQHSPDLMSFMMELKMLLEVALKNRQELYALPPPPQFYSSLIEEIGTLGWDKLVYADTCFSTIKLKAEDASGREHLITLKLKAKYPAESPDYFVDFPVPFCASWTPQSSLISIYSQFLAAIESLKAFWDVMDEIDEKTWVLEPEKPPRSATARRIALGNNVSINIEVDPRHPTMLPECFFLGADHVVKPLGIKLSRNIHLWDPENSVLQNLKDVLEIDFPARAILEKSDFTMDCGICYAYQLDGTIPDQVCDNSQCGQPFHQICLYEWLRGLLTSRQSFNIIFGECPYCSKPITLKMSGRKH
UniProt Q8N6M3: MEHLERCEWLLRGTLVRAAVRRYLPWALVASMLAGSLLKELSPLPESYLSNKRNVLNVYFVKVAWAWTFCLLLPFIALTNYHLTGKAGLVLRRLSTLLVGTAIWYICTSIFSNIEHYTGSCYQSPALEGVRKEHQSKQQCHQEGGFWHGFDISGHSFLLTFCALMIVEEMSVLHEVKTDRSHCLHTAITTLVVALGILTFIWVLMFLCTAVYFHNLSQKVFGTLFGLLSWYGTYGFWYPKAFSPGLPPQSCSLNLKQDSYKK
UniProt Q8TES7: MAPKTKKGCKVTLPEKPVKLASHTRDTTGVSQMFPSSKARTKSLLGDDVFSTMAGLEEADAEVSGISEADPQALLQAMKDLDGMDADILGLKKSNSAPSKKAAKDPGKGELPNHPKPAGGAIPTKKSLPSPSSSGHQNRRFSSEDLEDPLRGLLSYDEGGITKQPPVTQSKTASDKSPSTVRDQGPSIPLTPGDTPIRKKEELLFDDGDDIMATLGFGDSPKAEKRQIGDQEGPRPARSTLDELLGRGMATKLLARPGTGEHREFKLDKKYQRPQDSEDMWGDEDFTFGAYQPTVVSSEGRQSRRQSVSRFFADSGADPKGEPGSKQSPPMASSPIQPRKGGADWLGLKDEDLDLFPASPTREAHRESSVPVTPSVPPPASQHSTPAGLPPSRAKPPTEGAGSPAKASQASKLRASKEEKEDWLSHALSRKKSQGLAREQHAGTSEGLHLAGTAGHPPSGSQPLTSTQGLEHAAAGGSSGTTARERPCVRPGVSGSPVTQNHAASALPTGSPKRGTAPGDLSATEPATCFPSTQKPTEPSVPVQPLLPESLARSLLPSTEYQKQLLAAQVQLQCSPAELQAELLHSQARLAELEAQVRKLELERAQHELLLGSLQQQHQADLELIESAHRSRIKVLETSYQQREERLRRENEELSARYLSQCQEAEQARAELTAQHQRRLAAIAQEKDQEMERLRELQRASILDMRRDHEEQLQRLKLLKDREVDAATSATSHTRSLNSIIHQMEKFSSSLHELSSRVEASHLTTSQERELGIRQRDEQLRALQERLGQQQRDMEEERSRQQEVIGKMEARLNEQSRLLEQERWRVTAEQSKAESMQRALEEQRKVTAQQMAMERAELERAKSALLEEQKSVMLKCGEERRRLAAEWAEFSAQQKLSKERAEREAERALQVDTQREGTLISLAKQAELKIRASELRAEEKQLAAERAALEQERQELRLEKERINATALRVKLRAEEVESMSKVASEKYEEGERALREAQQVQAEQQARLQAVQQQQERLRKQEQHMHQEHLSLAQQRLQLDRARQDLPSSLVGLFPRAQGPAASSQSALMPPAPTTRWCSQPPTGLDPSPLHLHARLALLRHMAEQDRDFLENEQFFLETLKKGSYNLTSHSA

Compound in test [2]: CC1=CC=C(C=C1)SC2=C3C=C(SC3=CN=C2)C(=O)N
The essentials:
as §1

Compound in another test: CCCCN(Cc1ccc(C(=O)NO)cc1)C(=O)Nc1ccccc1 [Nexturastat A]
The essentials: as §1

Compound in test [3]: CCCS(=O)(=O)Nc1ccc(F)c(C(=O)c2c[nH]c3ncc(Cl)cc23)c1F
Summed up: as §1

Compound in test [4]: CCCc1cc(C)[nH]c(=O)c1CNC(=O)c1cc(-c2ccnc(N3CCN(C)CC3)c2)cc2c1cnn2C(C)C
Summed up: as §1

Compound in a further test: CCN(CC)Cc1ccc2cc(COC(=O)Nc3ccc(C(=O)NO)cc3)ccc2c1 [givinostat]
Summed up: as §1

Compound in test [5]: CC[C@@H]1C(=O)N(C)c2cnc(Nc3ccc(C(=O)NC4CCN(C)CC4)cc3OC)nc2N1C1CCCC1
The essentials:
as §1

Compound in the next test: CC[C@@H]1C(=O)N(C)c2cnc(Nc3ccc(C(=O)N[C@H]4CC[C@H](N5CCN(CC6CC6)CC5)CC4)cc3OC)nc2N1C(C)C [volasertib]
The essentials: as §1

Compound in the next test: CC[C@H](C)[C@@H](C(=O)N[C@@H]([C@@H](C)O)C(=O)N[C@@H](CC(C)C)C(=O)[C@]1(CO1)C)NC(=O)[C@H]([C@@H](C)CC)N(C)C(=O)C [epoxomicin]
The essentials: as §1

Compound in test [6]: CCn1c(C(=O)N(C2CC2)C2CC2)cc2c3c(ncn3C)c(Nc3cc(C)n(C)n3)nc21
The essentials:
as §1

Compound in test [7]: CN1C2=C(C3=C1C(=O)N(N=C3)CC4=CC(=CC=C4)N)SC(=C2)S(=O)C
Summed up:
as §1

Compound in test [8]: CC1=NC(=CC=C1)C2=C(N=C(N2)C(C)(C)C)C3=CC4=NC=CN=C4C=C3
The essentials:
as §1

Compound in another test: CCCS(=O)(=O)Nc1ccc(F)c(C(=O)c2c[nH]c3ncc(-c4ccc(Cl)cc4)cc23)c1F [vemurafenib]
The essentials: as §1

Compound in the next test: CCN(CCCOc1ccc2c(Nc3cc(CC(=O)Nc4cccc(F)c4)[nH]n3)ncnc2c1)CCOP(=O)(O)O [barasertib]
Summed up: as §1

Compound in test [9]: CC[C@H](C)N1C=C(C2=C(C=C(C=C21)C3=CN=C(C=C3)N4CCNCC4)C(=O)NCC5=C(C=C(NC5=O)C)C)C
Summed up:
as §1

Compound in test [10]: CCn1cc(-c2ccnc3[nH]c(-c4cccc(CN(C)C)c4)cc23)c(-c2ccc(NC(=O)N(C)C)cc2)n1
The essentials:
as §1

Compound in test [11]: CN(C)CC(=O)Nc1ccc2[nH]c(=O)c3ccccc3c2c1
The essentials:
as §1

Compound in test [12]: CN1CCC(CNc2ccc3ncc(-c4cccc(OC(F)(F)F)c4)n3n2)CC1
Summed up: as §1

Compound in a further test: CN(CCOC1=CC=C(C=C1)C[C@H]2C(=O)NC(=O)S2)C3=CC=CC=N3 (racemic) [rosiglitazone]
The essentials: as §1

Compound in test [13]: CC1=C(C=C(C=C1)NC(=O)C2=CC(=CC=C2)C(C)(C)C#N)NC3=CC4=C(C=C3)N=CN(C4=O)C
Summed up: as §1

The list shows a part of the results.

In the case of FAM222B (UniProt Q8WU58), the log2 fold change is inactive: -0.062 in test [1]; inactive: -0.081 in test [2]; inactive: 0.088 with Nexturastat A; inactive: -0.039 in test [3]; inactive: -0.119 in test [4]; inactive: -0.045 with givinostat. Besides, the log2 fold change was inactive: 0.017 in test [5]; inactive: -0.11 with volasertib; inactive: -0.139 with epoxomicin; inactive: 0.045 in [6]; inactive: -0.005 in [7].
As for FBXO9 (UniProt Q9UK97), the log2 fold change was inactive: 0.009 in [1]; inactive: 0.064 in [2]; inactive: -0.025 in test [8]; inactive: 0 with vemurafenib; inactive: 0.061 in test [3]; inactive: 0.052 in test [4]. The log2 fold change in the test with givinostat was inactive: 0.111; with barasertib, inactive: 0.117; in test [5] it was inactive: -0.17; with volasertib, active: -0.545; in [9], inactive: 0.06; in test [10] it was inactive: 0.009. Further, the values for the log2 fold change in [11], in [7] and in test [12] were inactive: 0.097, inactive: 0.045 and inactive: 0.203, respectively.
For FHAD1 isoform 3 (UniProt B1AJZ9), the log2 fold change was inactive: 0.014 in test [1]; inactive: 0.185 in [2]; inactive: 0.193 in test [8]; inactive: 0.023 with vemurafenib; inactive: -0.264 in test [3]; inactive: -0.015 in the test with barasertib. The log2 fold change with volasertib is inactive: -0.126; in test [10], inactive: -0.043; in test [11], inactive: -0.082; in the test with rosiglitazone it was inactive: -0.136; in [7], inactive: 0.505; in [12], inactive: -0.065.
FER (UniProt P16591): the log2 fold change in test [13] was inactive: -0.035; in the test with vemurafenib, inactive: -0.018; with givinostat, inactive: 0.483; in [5] it was inactive: 0.057; in test [6], inactive: -0.479; in test [10] it was inactive: 0.013. Also, the values for the log2 fold change in [11] and in test [12] were inactive: -0.016 and inactive: -0.073, respectively.
With FIG4 (UniProt Q92562), the log2 fold change in [2] is inactive: 0.014; in [3], inactive: 0.026; with givinostat it was inactive: -0.062; with volasertib, inactive: -0.303; in [6] it was inactive: -0.046.
Take FGFR1OP2 (UniProt Q9NVK5): the log2 fold change in test [8] is inactive: -0.099; with Nexturastat A, inactive: -0.057; in the test with vemurafenib it was inactive: 0.04; in [4] it was inactive: -0.076; in the test with givinostat, inactive: 0.08; with barasertib it was inactive: 0. For the same target, the log2 fold change in test [9] was inactive: -0.025; with epoxomicin, inactive: 0.067; in test [6], inactive: 0; in test [10], inactive: -0.047; in test [11], inactive: 0.079; in the test with rosiglitazone it was inactive: 0.075. The figures for the log2 fold change in [7] and in test [12] were inactive: -0.001 and inactive: 0.063, respectively.
In the case of FAM76A isoform 3 (UniProt Q8TAV0), the log2 fold change in [13] was inactive: -0.01; in test [2], inactive: -0.049; in the test with Nexturastat A it was inactive: 0.027; with vemurafenib it was inactive: -0.028; in test [3], inactive: -0.017; with givinostat, inactive: -0.033. The log2 fold change in the test with barasertib was inactive: 0.049; in [5], inactive: 0.027; in the test with volasertib it was inactive: 0.104; with epoxomicin, inactive: -0.063; in [6], inactive: -0.079; in test [10], inactive: -0.027. Also, the log2 fold change in test [11] is inactive: 0.532; with rosiglitazone it was inactive: 0.151; in test [12], inactive: 0.022.
For FGL2 (UniProt Q14314), the values for the log2 fold change (in the test with givinostat; in [6]) were inactive: 0.098 and inactive: 0.006, respectively.
With FAT2 (UniProt Q9NYQ8), the log2 fold change in test [1] is inactive: -0.035; in test [2], inactive: -0.113; in [8], inactive: -0.114; in the test with Nexturastat A, inactive: 0.456; with vemurafenib, inactive: -0.002; in [3], inactive: 0.009. Further, the log2 fold change in test [4] is inactive: -0.333; with givinostat it was inactive: 0.119; with barasertib it was inactive: 0.069; in test [5], inactive: 0.011; in the test with volasertib it was inactive: 0.029; with epoxomicin it was inactive: -0.047. In addition, the log2 fold change in test [10] was inactive: -0.023; in [11] it was inactive: -0.06; in test [7], inactive: -0.023; in [12] it was inactive: 0.109.
Consider FAM219A (UniProt Q8IW50), for which the log2 fold change in test [13] was inactive: -0.021; in test [2], inactive: -0.031; in test [8], inactive: 0.064; with Nexturastat A, inactive: 0.001; in test [3], inactive: -0.033; in [4], inactive: -0.058. The log2 fold change in the test with givinostat is inactive: 0.029; with barasertib, inactive: -0.114; in test [5], inactive: 0.052; with volasertib, inactive: 0.095; in [9], inactive: 0.179; in the test with epoxomicin, inactive: 0.099. For the same target, the figures for the log2 fold change (in [6]; with rosiglitazone; in test [7]) were inactive: -0.115, inactive: 0.028 and inactive: -0.106, respectively.
As to FANCL isoform 2 (UniProt Q9NW38), the figures for the log2 fold change (in the test with vemurafenib; in [11]) were inactive: 0.185 and inactive: 0.096, respectively.
On to FITM2 (UniProt Q8N6M3), for which the log2 fold change in [4] was inactive: -0.2; in the test with givinostat it was inactive: 0.051; in the test with barasertib, inactive: 0.04; in test [5] it was inactive: 0.022; in [9], inactive: -0.071; in test [6], inactive: 0.066. Further, the log2 fold change with rosiglitazone was inactive: -0.022.
For FGFR1OP2 isoform 2 (UniProt Q9NVK5), the values for the log2 fold change (in [2]; in [3]; with volasertib) were inactive: -0.115, inactive: 0.028 and inactive: 0.086, respectively.
As to FBF1 isoform 6 (UniProt Q8TES7), the values for the log2 fold change in test [8], in test [9] and in test [7] were inactive: -0.076, inactive: -0.016 and inactive: -0.025, respectively.
